No constants are given. Whether binding was seen depends on the method and setting. In cells and extracts the contact can be indirect. Some binding calls cover weakened binding; strength is not graded here.
What was measured:
[1] = target: T1, Microtubule end-binding protein 1 (EB1), murine (mouse (endogenous in cerebellum)) (UniProt Q61166); experiment: co-IP; EB1 or EB3 antibody cross-linked to AminoLink Plus resin; 1 mg wild-type mouse cerebellum lysate (N-PER) supplemented with 1 mg NAP/Davunetide, overnight at 4 °C; stringent washes with high detergent buffers; eluates immunoblotted for Adnp, Sirt1, EB1, EB3 and GAPDH
T1 sequence: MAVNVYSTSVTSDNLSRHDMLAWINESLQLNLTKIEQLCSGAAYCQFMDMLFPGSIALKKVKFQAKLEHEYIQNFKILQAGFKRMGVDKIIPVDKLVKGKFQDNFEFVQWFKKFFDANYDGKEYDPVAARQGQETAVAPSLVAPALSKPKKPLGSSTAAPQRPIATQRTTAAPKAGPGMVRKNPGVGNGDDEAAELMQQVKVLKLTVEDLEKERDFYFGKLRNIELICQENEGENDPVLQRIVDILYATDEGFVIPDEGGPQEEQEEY

Sequences of proteins named here, by UniProt entry; tags and fusion partners are left off.
UniProt Q6PER3: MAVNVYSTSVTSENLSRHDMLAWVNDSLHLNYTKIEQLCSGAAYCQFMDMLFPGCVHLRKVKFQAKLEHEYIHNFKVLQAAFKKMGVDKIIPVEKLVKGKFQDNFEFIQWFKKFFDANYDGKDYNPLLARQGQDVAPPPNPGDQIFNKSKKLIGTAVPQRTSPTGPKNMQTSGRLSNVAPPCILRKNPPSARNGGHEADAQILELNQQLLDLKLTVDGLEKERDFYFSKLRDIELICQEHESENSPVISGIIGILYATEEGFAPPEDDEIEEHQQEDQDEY

[2] = target: Microtubule end-binding protein 3 (EB3), murine (mouse (endogenous in cerebellum)) (UniProt Q6PER3); experiment: as above

B1: Activity-dependent neuroprotective protein (Adnp), murine (protein, UniProt Q9Z103 1-1108)
chain: MFQLPVNNLGSLRKARKTVKKILSDIGLEYCKEHIEDFKQFEPNDFYLKNTTWEDVGLWDPSLTKNQDYRTKPFCCSACPFSSKFFSAYKSHFRNVHSEDFENRILLNCPYCTFNADKKTLETHIKIFHAPNSSAPSSSLSTFKDKNKNDGLKPKQADNVEQAVYYCKKCTYRDPLYEIVRKHIYREHFQHVAAPYIAKAGEKSLNGAVSLGTNAREECNIHCKRCLFMPKSYEALVQHVIEDHERIGYQVTAMIGHTNVVVPRAKPLMLIAPKPQDKKGMGLPPRISSLASGNVRSLPSQQMVNRLSIPKPNLNSTGVNMMSNVHLQQNNYGVKSVGQSYGVGQSVRLGLGGNAPVSIPQQSQSVKQLLPSGNGRSFGLGAEQRPPAAARYSLQTANTSLPPGQVKSPSVSQSQASRVLGQSSSKPPPAATGPPPSNHCATQKWKICTICNELFPENVYSVHFEKEHKAEKVPAVANYIMKIHNFTSKCLYCNRYLPTDTLLNHMLIHGLSCPYCRSTFNDVEKMAAHMRMVHIDEEMGPKTDSTLSFDLTLQQGSHTNIHLLVTTYNLRDAPAESVAYHAQNNAPVPPKPQPKVQEKADVPVKSSPQAAVPYKKDVGKTLCPLCFSILKGPISDALAHHLRERHQVIQTVHPVEKKLTYKCIHCLGVYTSNMTASTITLHLVHCRGVGKTQNGQDKTNAPSRLNQSPGLAPVKRTYEQMEFPLLKKRKLEEDADSPSCFEEKPEEPVVLALDPKGHEDDSYEARKSFLTKYFNKQPYPTRREIEKLAASLWLWKSDIASHFSNKRKKCVRDCEKYKPGVLLGFNMKELNKVKHEMDFDAEWLFENHDEKDSRVNASKTVDKKHNLGKEDDSFSDSFEHLEEESNGSGSPFDPVFEVEPKIPSDNLEEPVPKVIPEGALESEKLDQKEEEEEEEEEDGSKYETIHLTEEPAKLMHDASDSEVDQDDVVEWKDGASPSESGPGSQQISDFEDNTCEMKPGTWSDESSQSEDARSSKPAAKKKATVQDDTEQLKWKNSSYGKVEGFWSKDQSQWENASENAERLPNPQIEWQNSTIDSEDGEQFDSMTDGVADPMHGSLTGVKLSSQQA
- binding [1]: binds
- binding [2]: binds

— paper PMC11027339
